The numbers were not newly measured in patent publication US12370241B2, “Nasal powder formulation for treatment of hypoglycemia” (AMPHASTAR PHARMACEUTICALS, INC., priority 2015, dated 2025), which cites them from elsewhere.

The conditions of the series: water; cited from earlier work.

With `OC[C@H]1O[C@@H]2O[C@H]3[C@H](O)[C@@H](O)[C@@H](O[C@H]4[C@H](O)[C@@H](O)[C@@H](O[C@H]5[C@H](O)[C@@H](O)[C@@H](O[C@H]6[C@H](O)[C@@H](O)[C@@H](O[C@H]7[C@H](O)[C@@H](O)[C@@H](O[C@H]1[C@H](O)[C@H]2O)O[C@@H]7CO)O[C@@H]6CO)O[C@@H]5CO)O[C@@H]4CO)O[C@@H]3CO` [α-CD, α (alpha)-cyclodextrin], the Aqueous solubility entry is given as “about 5 wt %”.
